Counter-ions that a name gives are not always drawn. This is one part of the list. Single values are uncertain here, since repeats match poorly.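 In a drug-repurposing library screen, luminescence reads luciferase driven by eight TEAD-binding elements, stably integrated into human kidney-derived cells. Compounds scoring over five robust Z scores above the plate mean are called hits.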
System: HEK293A TEAD-LUC reporter
Assay: TEAD-luciferase reporter activity (YAP activation), robust Z score vs plate; higher = stronger YAP/TEAD activation
Settings: 24 h

SMILES | TEAD-luciferase reporter activity (compound concentration: 200 nM) | TEAD-luciferase reporter activity (compound concentration: 2 uM) | TEAD-luciferase reporter activity (compound concentration: 10 uM)
O=C(NOCC1CC1)c1ccc(F)c(F)c1Nc1ccc(I)cc1Cl | inactive: -1.47 | inactive: 0.267 | inactive: 0.322
CCN(CCCCOC(=O)c1ccc(OC)c(OC)c1)C(C)Cc1ccc(OC)cc1 (stereo not drawn) | inactive: 0.0359 |  | inactive: 0.336
CCN(CCCCOC(=O)c1ccc(OC)c(OC)c1)C(C)Cc1ccc(OC)cc1 (stereo not drawn) [mebeverine] |  | inactive: 2.26 | 
O=C(O)[C@H]1O[C@@H](O[C@H]2[C@H](O)[C@H](O)[C@H](O[C@H]3[C@H](O)[C@H](O)[C@H](O)O[C@H]3C(=O)O)O[C@H]2C(=O)O)[C@@H](O)[C@@H](O)[C@@H]1O | inactive: 0.62 |  | inactive: 1.26
O=C(/C=C/c1ccccc1)NCCO [idrocilamide] | inactive: -0.0639 | inactive: -1.1 | inactive: -0.728
CC1(C)CCC2(CC1)N[C@@H](C(=O)N[C@@H]1CC[C@@H](C(N)=O)OC1)[C@H](c1ccnc(Cl)c1F)[C@]21C(=O)Nc2cc(Cl)ccc21 [Milademetan tosylate] | inactive: -2.33 |  | inactive: 1.11
Cc1cc2cc3c(C)cc(=O)oc3c(C)c2o1 | inactive: -0.576 | inactive: -1.76 | inactive: -1.09
O=c1oc(CCN2CCN(c3ccccc3)CC2)c(-c2ccc(F)cc2)o1 [fludoxopone] | inactive: -0.0872 | inactive: 1.04 | inactive: 1.63
CC1=CC(C)(C)Nc2ccc3c(c21)C(c1cccc(Cl)c1)Oc1ccc(F)cc1-3 (stereo not drawn) | inactive: -1.29 | inactive: 0.878 | inactive: -0.582
O=S(=O)(O)CCS(=O)(=O)O [Clomethiazole edisilate] | inactive: -0.137 | inactive: -1.88 | inactive: 0.322
CCOC(=O)CNC(=O)[C@@H]1CCCN1C(=O)Cc1ccccc1 | inactive: -1.58 | inactive: 0.181 | inactive: -0.538
Cn1ncc2c1Nc1cc(Cl)ccc1N(C(=O)c1ccc(CNC(=O)C3CC3)c(F)c1)C2 | inactive: -0.408 | inactive: -0.337 | inactive: -0.188
CC(C)CCCC(C)Cc1ccc(C(C)CC(=O)NCCO)cc1 (stereo not drawn) | inactive: 0.125 | inactive: 1.17 | inactive: -0.738
O=S(=O)(O)c1cc(I)c(O)c2ncccc12 | inactive: 0.658 | inactive: 1.12 | active: 5.98
CCN(CC)CCO/N=C(/c1ccco1)c1ccc(OC)c(Cl)c1Cl [Diclofurime] | inactive: -0.581 | inactive: 1.09 | inactive: -0.977
C[C@H]1C[C@@](O)(c2csc(Sc3ccc4c(c3)CC(=O)N4C)c2)CCO1 | inactive: 3.76 | inactive: -0.529 | inactive: 0.516
CCCCCCCC/C=C\CCCCCCCC(=O)OCC(COC(=O)CCCCCCC/C=C\CCCCCCCC)OC(=O)CCCCCCC/C=C\CCCCCCCC | inactive: 1.2 | inactive: 0.697 | inactive: 1.69
COc1ccc(CCNCCC[C@](C#N)(c2ccc(OC)c(OC)c2)C(C)C)cc1OC [Arverapamil] | inactive: -0.231 | inactive: 0.411 | inactive: 0.837
CN1CCN(C(=O)[C@]2(C)CO[C@@H](c3nc(-c4ccnc(NCC5CC5)n4)c(-c4ccc(F)cc4)[nH]3)OC2)CC1 | inactive: -0.0873 | inactive: -1.57 | inactive: -2.2

SMILES | TEAD-luciferase reporter activity (compound concentration: 200 nM) | TEAD-luciferase reporter activity (compound concentration: 2 uM) | TEAD-luciferase reporter activity (compound concentration: 10 uM)
O=C(O)[C@H]1CN(C/C=C/P(=O)(O)O)CCN1 [Midafotel] | inactive: -0.132 |  | inactive: 3.32
O=C(O)/C=C/c1ccc(-c2ccc(O)c(C34CC5CC(CC(C5)C3)C4)c2)cc1 [Adarotene] | inactive: -0.737 | inactive: -2.61 | inactive: -1.66
Cc1cc(C(=O)NCCc2ccc(S(=O)(=O)NC(=O)NC3CCCCC3)cc2)no1 | inactive: -0.886 | inactive: -1.15 | inactive: -0.889
O=C(NCc1ccc2c(c1)OCO2)C1Cc2c(sc3ccccc23)CN1 (stereo not drawn) | inactive: 0.128 | inactive: -0.368 | inactive: -1.07
O=C(Nc1ccc2c(c1)CCN(Cc1ncc[nH]1)C2)c1ccccc1-c1ccc(C(F)(F)F)cc1 | inactive: -1.22 | inactive: -0.53 | inactive: 0.886
CC(=O)NS(=O)(=O)c1ccc(N)cc1 |  | inactive: 0.438 | 
CC(=O)NS(=O)(=O)c1ccc(N)cc1 [Sulfacetamide144-80-9] | inactive: 0.248 |  | inactive: -1.19
Cc1csc(Cl)c1Nc1nc2ccccc2[nH]1 | inactive: -0.573 | inactive: -1.47 | inactive: -1.51
Cc1nc(O)c(N)cc1-c1ccccc1 | inactive: -0.474 | inactive: -0.144 | inactive: 1.59
CSc1nc(=O)c2[nH]cc(Cc3cccnc3)c2[nH]1 | inactive: 3.26 |  | active: 7.15
NNC(=O)c1ccncc1 [Isoniazid54-85-3] | inactive: -1.27 |  | inactive: -0.143
NNC(=O)c1ccncc1 |  | inactive: 2.02 | 
NC1CCN(c2nc3c(cc2F)c(=O)c(C(=O)O)cn3-c2ccc(F)cc2F)C1 (stereo not drawn) [tosufloxacin tosilate] | inactive: 0.895 | inactive: -0.712 | inactive: 2.2
O=C1Nc2ccccc2C12NCCc1c2[nH]c2ccc(F)cc12 (stereo not drawn) | inactive: -1.58 | inactive: -0.468 | inactive: 0.233
N#Cc1c(N)nc(SCc2csc(-c3ccc(Cl)cc3)n2)c(C#N)c1-c1ccc(OCCO)cc1 [capadenoson] | inactive: -0.474 | inactive: -1.91 | inactive: -0.914
O=C1CNC(=O)CN1 [piperazinedione] | inactive: 0.712 | inactive: -1.05 | inactive: 0.126
COc1ccc(C(=O)c2ccccc2)c(O)c1 |  | inactive: -1.19 | 
COc1ccc(C(=O)c2ccccc2)c(O)c1 [Oxybenzone] | inactive: 3.45 |  | inactive: -1.34
NC(=O)c1[nH]cnc1O | inactive: 0.127 | inactive: 0.375 | inactive: 2

Laid out differently: results already given
SMILES	TEAD-luciferase reporter activity (compound concentration: 200 nM)	TEAD-luciferase reporter activity (compound concentration: 2 uM)	TEAD-luciferase reporter activity (compound concentration: 10 uM)
Cc1cc(C(=O)NCCc2ccc(S(=O)(=O)NC(=O)NC3CCCCC3)cc2)no1	inactive: -0.886	inactive: -1.15	inactive: -0.889
O=C(NCc1ccc2c(c1)OCO2)C1Cc2c(sc3ccccc23)CN1 (stereo not drawn)	inactive: 0.128	inactive: -0.368	inactive: -1.07
O=C(Nc1ccc2c(c1)CCN(Cc1ncc[nH]1)C2)c1ccccc1-c1ccc(C(F)(F)F)cc1	inactive: -1.22	inactive: -0.53	inactive: 0.886

Source: the supplement of paper PMC10735217
